Measured values as given in article PMC10701869, “Anti-Xanthine Oxidase 5′-Hydroxyhericenes A–D from the Edible Mushroom Hericium erinaceus and Structure Revision of 3-[2,3-Dihydroxy-4-(hydroxymethyl)tetrahydrofuran-1-yl]-pyridine-4,5-diol” (ACS Omega, 2023).
Counter-ions that a name gives are not always drawn.

Tested on: MDA-MB-231
Assay: cells
Parameters: species or system T47D, MRC-5; MTT cell viability, growth inhibition versus DMSO control, n = 4
Conditions: Homo sapiens, MDA-MB-231, 48 h
Method: Cytotoxicity assays were evaluated against the following cell lines: T-47D ATCC, HTB-133 (hormone-dependent breast cancer), and MRC-5 ATCC, CCL171 (normal embryonic lung) from the American Type Culture Collection (ATCC, Manassas, VA) as well as MDA-MB-231 ((hormone-independent breast cancer) from M.D. Anderson Cancer Center, Houston, TX). […] The cutoff concentration is 50 μg mL^–1. Cell viability was determined using the MTT assay. […] The selectivity index between the T47D cancer cell line and the MRC-5 normal cell line is 13.5. […] In addition, this compound was previously reported to be noncytotoxic to MCF-7 cancer cell line.[36] This means that the growth inhibitory effect of hericerin depends on the types of breast cancer cell. T47D, MDA-MB-231, and MCF-7 are popular models in breast cancer studies. The T47D and MCF-7 are hormone-dependent breast cancer cells, but MDA-MB-231 is a hormone-independent breast cancer cell. […] Thus, hericerin (13) may be a good candidate to develop an anticancer agent against progesterone-sensitive breast cancer cells. Moreover, hericerin was reported to inhibit the growth of A549, SK-OV-3, SK-MEL-2, HCT-15, and HL-60 cancer cell lines.[10],[38] […] First, T47D and MDA-MB-231 breast cancer cells were exposed to compound 13 for 48 h, and the abundance of two apoptotic markers, namely, PARP and procaspase 3, was determined by Western blot.

SMILES: COc1cccc2c1C(=O)c1c(O)c3c(c(O)c1C2=O)C[C@@](O)(C(=O)CO)C[C@@H]3O[C@H]1C[C@H](N)[C@H](O)[C@H](C)O1 [Doxorubicin·HCl, Doxorubicin hydrochloride]
- IC50: 2210 ± 230 nM
